Results published in the supplement of paper PMC8256030.
Values joined by “and” are separate entries in the source; they are usually repeats but may differ in a detail not shown here. Identical values can stand only once. Counter-ions that a name gives are not always drawn. Some of the results follow. Single values are uncertain here, since repeats match poorly.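 HEK293T cells were given each compound shortly before transfection with a reporter in which red mCherry is followed by the SARS-CoV-2 frameshift element and then GFP in the −1 frame, so GFP appears only after frameshifting.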

tested on: HEK293T; assay: percent viability (nuclei count) relative to control; higher = more viable cells; details: 10 µM; 24 h

| Compound | percent viability |
| --- | --- |
| Oc1ccc(Cl)cc1Sc1cc(Cl)ccc1O [fenticlor] | 200% |
| CN(C)/N=N/c1[nH]cnc1C(N)=O [Dacarbazine] | 210% |
| COc1ccc(C(=O)c2ccc(C)cc2)c(O)c1 [mexenone] | 162% |
| CO/N=C/C1=CCCN(C)C1 [milameline] | 115% |
| O=C(O)C1CSCN1 (configuration not stated) [timonacic] | 373% |
| O=C1C2CC3CC1CC(O)(C3)C2 [idramantone] | 268% |
| C[C@H]1[C@H](NC(=O)/C(=N\OC(C)(C)C(=O)O)c2csc(N)n2)C(=O)N1S(=O)(=O)O [Aztreonam] | 188% |
| CN1CCC[C@@H]1CCO[C@](C)(c1ccccc1)c1ccc(Cl)cc1 [Clemastine] | 398% |
| C[C@@H](C(=O)O)c1ccc(-c2ccccc2)c(F)c1 [tarenflurbil] | 113% |
| O=C(O)CC/C=C\CC[C@@H]1[C@@H](N2CCCCC2)[C@@H](O)C[C@@H]1OCc1ccc(-c2ccccc2)cc1 [vapiprost] | 106% |
| Oc1c(I)cc(I)c2cccnc12 [5,7-Diiodo-8-hydroxyquinoline] | 13.5% |
| CC(C)OC(=O)CCC/C=C\C[C@@H]1[C@@H](/C=C/[C@@H](O)COc2cccc(C(F)(F)F)c2)[C@H](O)C[C@@H]1O [travoprost] | 137% and 118% |
| COc1ccc(C2C(=O)c3ccccc3C2=O)cc1 [anisindione] | 200% |
| O=C(NCC1CCCO1)c1cc(Br)cc(Br)c1O (configuration not stated) [fursalan] | 320% |
| NC(=O)C(c1ccccc1)(c1ccc(F)cc1)c1ccc(F)cc1 [senicapoc] | 93.8% |
| CC1=C(CC(=O)O)c2cc(F)ccc2/C1=C\c1ccc([S+](C)[O-])cc1 (configuration not stated) [sulindac] | 148% |
| CCCCCCNC(=O)n1cc(F)c(=O)[nH]c1=O [carmofur] | 322% |
| C[C@@H]1[C@H](O)[C@@H](C)/C=C/C=C/C=C/C=C/C=C/C=C/C=C/[C@H](O[C@@H]2O[C@H](C)[C@@H](O)[C@H](N)[C@@H]2O)C[C@@H]2O[C@](O)(C[C@@H](O)C[C@@H](O)[C@H](O)CC[C@@H](O)C[C@@H](O)CC(=O)O[C@H]1C)C[C@H](O)[C@H]2C(=O)O [amphotericin B] | 187% |
| C[N+](C)(C)NCCC(=O)[O-] [meldonium] | 344% |

| Compound | percent viability |
| --- | --- |
| Cc1ccnc2c1CCCC2C(N)=S (configuration not stated) [isotiquimide] | 274% |
| C[C@@H]1C[C@H]2[C@@H]3C[C@H](F)C4=CC(=O)C=C[C@]4(C)[C@H]3[C@@H](O)C[C@]2(C)[C@H]1C(=O)CO [Fluocortolone] | 68.6% |
| COc1c2occc2cc2ccc(=O)oc12 | 103% |
| NS(=O)(=O)c1cc2c(cc1Cl)NC(CSCC(F)(F)F)NS2(=O)=O (configuration not stated) [epitizide] | 88.1% |
| O=c1n(CCCN2CCN(c3cccc(Cl)c3)CC2)nc2ccccn12 [trazodone] | 142% |
| O=c1[nH]c(=O)n([C@H]2C[C@H](O)[C@@H](CO)O2)cc1Br [broxuridine] | 136% |
| CC[C@]12CN3CCc4c([nH]c5ccccc45)[C@@](C(=O)OC)(c4cc5c(cc4OC)N(C=O)[C@H]4[C@@](O)(C(=O)OC)[C@H](OC(C)=O)[C@]6(CC)C=CCN7CC[C@]54[C@@H]76)C[C@@H](C3)[C@H]1O2 [vinformide] | 21.9% |
| CC(C)NCC(O)c1ccc(NS(C)(=O)=O)cc1 (configuration not stated) | 188% |
| COc1c(N2C[C@@H]3CCCN[C@@H]3C2)c(F)cc2c(=O)c(C(=O)O)cn(C3CC3)c12 [Moxifloxacin·HCl] | 239% |
| Cc1ccc(S(=O)(=O)NC(=O)N[C@H]2[C@H]3CC[C@@](C)([C@H]2O)C3(C)C)cc1 [glibornuride] | 116% |
| COc1ccccc1OCC(O)CO (configuration not stated) [guaifenesin] | 210% and 112% |
| COc1ccccc1OCC(O)CN1CCN(CC(=O)Nc2c(C)cccc2C)CC1 (configuration not stated) [ranolazine] | 213% and 241% |
| N[C@H](C(=O)O)c1ccc(O)cc1 [oxfenicine] | 198% |
| CC#CCn1c(N2CCC[C@@H](N)C2)nc2c1c(=O)n(Cc1nc(C)c3ccccc3n1)c(=O)n2C | 403% |
| Oc1cc(O)c(Cl)cn1 [gimeracil] | 240% |
| CCOc1c(N2CCOCC2)cnn(C)c1=O [emorfazone] | 192% |
| CC(C)OC(=O)CCC/C=C\C[C@@H]1[C@@H](CC[C@@H](O)CCc2ccccc2)[C@H](O)C[C@@H]1O [Latanoprost] | 227% and 78.7% |
| NS(=O)(=O)c1ccc(C(=O)O)cc1 [carzenide] | 365% |
